Taken from: PubChem BioAssay AID1224828 (NIAID, 2016)
The whole screen tested about 17,000 reagents; shown is a part drawn at random. 762 of all reagents (4.5%) were called active. 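Active calls include both raised and lowered p65 entry, mostly lowered; wells with fewer than 50 cells lack a z-score.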 The raw values are shown without normalisation. Reagent sequences are not shown.

- Test: 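Find genes required for NF-kappaB p65 moving into the nucleus after LPS in mouse macrophages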 (primary screen)
- Cells: mouse RAW264.7 G9 macrophage reporter cells (GFP-p65, Tnf promoter-mCherry)
- Reagent: siRNA pool against mouse genes, 100 nM
- Time to read-out: 2 days siRNA transfection, then 40 min LPS before fixation
- Challenge: LPS (Salmonella minnesota R595) at 10 ng/ml
- Measured: 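Imaged p65 nuclear translocation ratio, normalised to the plate median, converted to robust z-scores and averaged across two replicates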
- Reading the numbers: p65 translocation robust z-score: higher = more nuclear NF-kappaB p65 after LPS than the plate median; nuclear/cytoplasmic p65 ratio: higher = more nuclear NF-kappaB p65
- Rule for the call: 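Called active when z exceeds 3.3 or falls under -1.56 (median of Tlr4 controls), giving activity score of at least 50; no calls for control wells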
- Meaning of the calls: active = hit (p65 shift raised or lowered); inactive = no clear change

Nceh1 (GeneID 320024) showed p65 translocation robust z-score -1.12; nuclear/cytoplasmic p65 ratio, rep 1 = 1.45; nuclear/cytoplasmic p65 ratio, rep 2 = 1.44; low cell count flag enough cells to score; inactive.
After knock-down of Gask1a (GeneID 245050), the screen gave p65 translocation robust z-score 0.32; nuclear/cytoplasmic p65 ratio, rep 1 = 1.68; nuclear/cytoplasmic p65 ratio, rep 2 = 1.8; low cell count flag enough cells to score; inactive.
Helb (GeneID 117599) scored p65 translocation robust z-score 2.27; nuclear/cytoplasmic p65 ratio, rep 1 = 2.03; nuclear/cytoplasmic p65 ratio, rep 2 = 1.84; low cell count flag enough cells to score; inactive.
After knock-down of Sts (GeneID 20905), the screen gave p65 translocation robust z-score -1.59; nuclear/cytoplasmic p65 ratio, rep 1 = 1.15; nuclear/cytoplasmic p65 ratio, rep 2 = 1.1; low cell count flag enough cells to score; active.
Hnrnph2 (GeneID 56258) scored p65 translocation robust z-score -0.37; nuclear/cytoplasmic p65 ratio, rep 1 = 1.66; nuclear/cytoplasmic p65 ratio, rep 2 = 1.42; low cell count flag enough cells to score; inactive.
Depletion of Ipo11 (GeneID 76582) came out at: p65 translocation robust z-score 0.35; nuclear/cytoplasmic p65 ratio, rep 1 = 1.62; nuclear/cytoplasmic p65 ratio, rep 2 = 1.46; low cell count flag enough cells to score; inactive.
Knock-down of Aox1 (GeneID 11761) resulted in: p65 translocation robust z-score 1.5; nuclear/cytoplasmic p65 ratio, rep 1 = 1.83; nuclear/cytoplasmic p65 ratio, rep 2 = 1.92; low cell count flag enough cells to score; inactive.
Against Vmn1r183 (GeneID 209824), the values are nuclear/cytoplasmic p65 ratio, rep 1 = 1.32; nuclear/cytoplasmic p65 ratio, rep 2 = 0.991; low cell count flag fewer than 50 cells per well; well left out of scoring; inactive.
With knock-down of Trpa1 (GeneID 277328) the results were p65 translocation robust z-score 0.41; nuclear/cytoplasmic p65 ratio, rep 1 = 1.74; nuclear/cytoplasmic p65 ratio, rep 2 = 1.63; low cell count flag enough cells to score; inactive.

Entries above whose target name starts with H or h (2):
Helb (GeneID 117599) — p65 translocation robust z-score: 2.27; nuclear/cytoplasmic p65 ratio, rep 1: 2.03; nuclear/cytoplasmic p65 ratio, rep 2: 1.84; low cell count flag: enough cells to score; outcome: inactive
Hnrnph2 (GeneID 56258) — p65 translocation robust z-score: -0.37; nuclear/cytoplasmic p65 ratio, rep 1: 1.66; nuclear/cytoplasmic p65 ratio, rep 2: 1.42; low cell count flag: enough cells to score; outcome: inactive

The results go on.
Depletion of Sirt2 (GeneID 64383) resulted in: p65 translocation robust z-score 1.18; nuclear/cytoplasmic p65 ratio, rep 1 = 1.65; nuclear/cytoplasmic p65 ratio, rep 2 = 1.79; low cell count flag enough cells to score; inactive.
For Dennd11 (GeneID 243780), the entry reads p65 translocation robust z-score -1.11; nuclear/cytoplasmic p65 ratio, rep 1 = 1.32; nuclear/cytoplasmic p65 ratio, rep 2 = 1.22; low cell count flag enough cells to score; inactive.
Depletion of Rbm11 (GeneID 224344) resulted in: p65 translocation robust z-score 0.28; nuclear/cytoplasmic p65 ratio, rep 1 = 1.57; nuclear/cytoplasmic p65 ratio, rep 2 = 1.49; low cell count flag enough cells to score; inactive.
For Slc22a1 (GeneID 20517), the values are nuclear/cytoplasmic p65 ratio, rep 1 = 1.33; nuclear/cytoplasmic p65 ratio, rep 2 = 1.13; low cell count flag fewer than 50 cells per well; well left out of scoring; inactive.
Knock-down of Emc2 (GeneID 66736) came out at: p65 translocation robust z-score 1.61; nuclear/cytoplasmic p65 ratio, rep 1 = 1.52; nuclear/cytoplasmic p65 ratio, rep 2 = 1.43; low cell count flag enough cells to score; inactive.
